Source: patent publication US20210283091A1, “DECREASING IMMUNE ACTIVITY THROUGH MODULATION OF POSTCELLULAR SIGNALING FACTORS” (FLAGSHIP PIONEERING INNOVATIONS V, INC., priority 2018, published 2021)
“Also recorded” adds a separate entry of the source. At least one compound was matched to its structure with a doubt left.

Experiments:
[1] = test system: HT1080 fibrosarcoma cells; test: Viability of HT1080 fibrosarcoma cells treated with ferroptosis inducer, with or without ferroptosis inhibitor or siRNA; type: cell-based; conditions: various doses, 24 hours treatment
[2] = test system: Caki-1 renal cell carcinoma cells; test: Viability of Caki-1 renal cell carcinoma cells treated with ferroptosis inducer, with or without Ferrostatin-1; type: cell-based; conditions: various doses, 24 hours treatment
[3] = test system: NFKB; test: NFKB reporter activity in THP1-Dual monocytes co-cultured with treated PANC1 cells; type: cell-based, human; conditions: PANC1 cells treated 24 hours, then co-culture with THP1-Dual cells 24 hours
[4] = test system: NFKB; test: NFKB reporter activity in THP1-Dual monocytes co-cultured with treated Caki-1 cells; type: cell-based, human; conditions: Caki-1 cells treated 24 hours, then co-culture with THP1-Dual cells 24 hours
Procedure: Caki-1 renal cell carcinoma cells were treated with either control (DMSO) or various doses of Erastin, for 24 hours prior to co-culture with THP1-Dual cells for an additional 24 hours. Erastin was purchased from Selleckchem (Houston, Tex.) and dissolved in DMSO. Subsequently, the THP1 supernatants were assessed for NFKB or IRF reporter activity. Caki-1 cells were acquired from ATCC and THP1-Dual cells acquired from InvivoGen (San Diego, Calif.). Both cell types were cultured in 96-well plates for the duration of the assay. 7.500 Caki-1 cells were plated 24 hours prior to dosing with Erastin, with a final DMSO concentration of 0.5%. 24 hours post-treatment, THP1-Dual cells (25,000 cells/well) were added to the Caki-1 cells. 24 hours later, 30 μl of supernatant was mixed with either 200 μl QuantiBlue (InvivoGen) or 50 μl QuantiLuc and absorbance or luminescence was recorded on a Molecular Devices plate reader. […] Subsequently, the THP1 supernatants were assessed for NFKB or IRF reporter activity. […] 24 hours later, 30 μl of supernatant was mixed with either 200 μl QuantiBlue (InvivoGen, San Diego, Calif.) or 50 μl QuantiFuc and absorbance or luminescence was recorded on a Molecular Devices plate reader. […] Subsequently, the THP1 supernatant was assessed for NFKB reporter activity. […]

[5] = test system: NFKB; test: NFKB reporter activity in THP1-Dual monocytes co-cultured with treated HT1080 cells; type: cell-based, human; conditions: HT1080 cells treated 24 hours, then co-culture with THP1-Dual cells 24 hours
Procedure: HT1080 fibrosarcoma cells were treated with either control (DMSO) or various doses of Erastin, piperazine erastin (PE), or imidazole ketoerastin (IKE) for 24 hours prior to co-culture with THP1-Dual cells for an additional 24 hours. Erastin was purchased from Selleckchem (Houston, Tex.) and dissolved in DMSO. Subsequently, the THP1 supernatants were assessed for nuclear factor kappa-light-chain-enhancer of activated B cells (NFKB) or interferon regulatory factor (IRF) reporter activity.
HT1080 cells were acquired from ATCC and THP1-Dual cells were acquired from InvivoGen (San Diego, Calif.). […] 24 hours later, 30 μl of supernatant was mixed with either 200 μl QuantiBlue (InvivoGen, San Diego, Calif.) (for NFKB reporter activity) or 50 μl QuantiLuc (for IRF reporter activity) and absorbance or luminescence was recorded on a Molecular Devices plate reader.
HT1080 fibrosarcoma cells were treated with various doses of Erastin (e.g. 0.8, 0.16, 0.31, 0.63, 1.25, 2.5, 5, 10 or 20 μM) alone or in combination with a ferroptosis inhibitor (1 μM Ferrostatin-1, 1 μM Liproxstatin-1, 100 μM Trolox, 25 μM β-Mercaptoethanol or 100 μM Deferoxamine) for 24 hours prior to co-culture with THP1-Dual cells for an additional 24 hours. […] Subsequently, the THP1 supernatant was assessed for NFKB activity. […]

[6] = test system: PANC1 pancreatic cancer cells; test: Viability of PANC1 pancreatic cancer cells treated with Erastin; type: cell-based; conditions: various doses, 24 hours treatment

CCOc1ccccc1-n1c(C(C)N2CCN(C(=O)COc3ccc(Cl)cc3)CC2)nc2ccccc2c1=O (stereo not drawn) [Erastin]
viability of HT1080 cells [1]: negatively affected the viability; also recorded: decreased viability of the cells in a dose dependent manner | viability of Caki-1 cells [2]: negatively affected the viability | NFKB signaling in THP1 monocytes [3]: elicited NFKB signaling | NFKB signaling in THP1 monocytes [4]: elicited NFKB signaling | NFKB signaling in THP1 monocytes [5]: elicited NFKB signaling; also recorded: increased NFKB activity in THP1 cells in a dose dependent manner | viability of PANC1 cells [6]: negatively affected the viability
